These are yes or no findings as the source states them, for the method shown. For some assays here: In cells and extracts the contact can be indirect. Some results given as binding are weak or reduced against the parent protein; the word gives no strength. Values belong to the substance of their own block, whether it stands above or below them.
How the values were obtained:
[1] = biological target: native C-phycocyanin β subunit (holo-β) (Anabaena sp. PCC7120) (UniProt P07120); experiment: SEC-HPLC of Ni2+-NTA-purified An349
[2] = biological target: native C-phycocyanin β subunit (holo-β) (Anabaena sp. PCC7120) (UniProt P07120); experiment: affinity copurification from Anabaena
[3] = biological target: native C-phycocyanin β subunit (holo-β) (Anabaena sp. PCC7120) (UniProt P07120); experiment: IMAC copurification from Anabaena; SDS-PAGE
[4] = biological target: native C-phycocyanin α subunit (holo-α) (Anabaena sp. PCC7120) (UniProt P07121); experiment: SEC-HPLC of An353; SDS-PAGE
[5] = biological target: HTβ-BCCP114 subunit (6xHis-TEV-CpcB-TBN-BCCP114) (Anabaena sp. PCC7120) (UniProt P07120+Q06881); experiment: SEC-HPLC of An353
[6] = biological target: native C-phycocyanin α subunit (holo-α) (Anabaena sp. PCC7120) (UniProt P07121); experiment: IMAC copurification from Anabaena; SDS-PAGE
[7] = biological target: MalE-6×His-TEV-β (maltose-binding protein-phycocyanin β subunit fusion) (Anabaena sp. PCC7120) (UniProt P07120); experiment: SEC-HPLC of An398
[8] = biological target: native C-phycocyanin α subunit (holo-α) (Anabaena sp. PCC7120) (UniProt P07121); experiment: Ni2+-NTA copurification from Anabaena; SDS-PAGE
[9] = biological target: native C-phycocyanin α subunit (holo-α) (Anabaena sp. PCC7120) (UniProt P07121); experiment: assembly into phycobilisomes against loss of α on purification
[10] = biological target: avidin on monomeric avidin-coated beads (UniProt P02701); experiment: monomeric avidin-coated beads; binding through biotin on BCCP114
[11] = biological target: native C-phycocyanin α subunit (holo-α) (Anabaena sp. PCC7120) (UniProt P07121); experiment: IMAC copurification from Anabaena
[12] = biological target: native C-phycocyanin β subunit (holo-β) (Anabaena sp. PCC7120) (UniProt P07120); experiment: IMAC copurification from Anabaena
[13] = biological target: native C-phycocyanin β subunit (holo-β) (Anabaena sp. PCC7120) (UniProt P07120); experiment: SEC-HPLC of Ni2+-NTA-purified An354; SDS-PAGE
[14] = biological target: native C-phycocyanin α subunit (holo-α) (Anabaena sp. PCC7120) (UniProt P07121); experiment: comparison of copurification results
[15] = biological target: native C-phycocyanin α subunit (holo-α) (Anabaena sp. PCC7120) (UniProt P07121); experiment: affinity copurification from Anabaena
[16] = biological target: native C-phycocyanin β subunit (holo-β) (Anabaena sp. PCC7120) (UniProt P07120); experiment: Ni2+-NTA copurification from Anabaena; SDS-PAGE
[17] = biological target: avidin on monomeric avidin-coated beads (UniProt P02701); experiment: avidin-coated beads; binding through biotin on BCCP114

Amino acid sequences for entries named in this document (tags omitted). A change or cut given only in a name is not applied to a line headed by its entry. Residues count along the entry.
UniProt P07120: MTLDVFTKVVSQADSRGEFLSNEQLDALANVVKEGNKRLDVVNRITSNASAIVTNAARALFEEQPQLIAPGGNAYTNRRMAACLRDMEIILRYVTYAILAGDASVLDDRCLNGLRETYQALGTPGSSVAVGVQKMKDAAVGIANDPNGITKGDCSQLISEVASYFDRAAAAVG
native C-phycocyanin β subunit (holo-β): residues 2-173 of P07120
UniProt P07121: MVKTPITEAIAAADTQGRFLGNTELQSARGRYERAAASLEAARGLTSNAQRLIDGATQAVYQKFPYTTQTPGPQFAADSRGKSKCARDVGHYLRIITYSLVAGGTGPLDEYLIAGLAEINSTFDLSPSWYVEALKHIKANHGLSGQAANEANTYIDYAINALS
native C-phycocyanin α subunit (holo-α): residues 2-163 of P07121
UniProt Q06881: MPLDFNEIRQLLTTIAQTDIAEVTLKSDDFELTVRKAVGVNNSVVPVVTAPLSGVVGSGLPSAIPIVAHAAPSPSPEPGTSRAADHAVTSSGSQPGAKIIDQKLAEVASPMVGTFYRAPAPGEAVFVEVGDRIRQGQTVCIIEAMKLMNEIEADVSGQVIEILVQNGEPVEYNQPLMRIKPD
UniProt P02701, residues 25-152: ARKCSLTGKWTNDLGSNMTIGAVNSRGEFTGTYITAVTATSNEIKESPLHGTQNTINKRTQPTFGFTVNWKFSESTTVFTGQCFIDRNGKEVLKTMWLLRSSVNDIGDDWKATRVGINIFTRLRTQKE
UniProt Q00812: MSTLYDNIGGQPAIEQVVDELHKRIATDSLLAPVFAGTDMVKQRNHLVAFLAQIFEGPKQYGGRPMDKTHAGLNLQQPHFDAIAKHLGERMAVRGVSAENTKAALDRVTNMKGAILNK
UniProt P02185: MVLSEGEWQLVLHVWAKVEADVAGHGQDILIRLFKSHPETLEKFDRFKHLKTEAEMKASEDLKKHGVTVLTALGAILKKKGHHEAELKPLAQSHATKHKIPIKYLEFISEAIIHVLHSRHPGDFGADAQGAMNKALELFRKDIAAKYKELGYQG

Substance: GlbN-6×His-TEV-CpcA (cyanoglobin-phycocyanin α subunit fusion) (from UniProt Q00812 1-118; P07121 1-163)
binding [2]: binds

Substance: HT-pLI-α (6×His-GCN4pLI-TEV-CpcA) (from UniProt P07121 1-163)
binding [3]: binds

Substance: SWMβ-6×His-TEV-CpcA (sperm whale myoglobin-phycocyanin α subunit fusion) (from UniProt P02185 1-154; P07121 1-163)
binding [2]: binds

Substance: HT-BTN-α (6xHis-BTN-TEV-CpcA) (from UniProt P07121 1-163)
binding [3]: binds

Substance: HT-pII-β-L11-α (6×His-GCN4pII-TEV-CpcB-L11-CpcA) (from UniProt P07120 1-173; P07121 2-163)
binding [6]: binds
binding [3]: binds

Substance: HT-pII-α (6×His-GCN4pII-TEV-CpcA) (from UniProt P07121 1-163)
binding [3]: binds

Substance: MalE-6×His-TEV-β (maltose-binding protein-phycocyanin β subunit fusion) (from UniProt P07120 1-173)
binding [7]: binds
binding [8]: binds
binding [9]: binds

Substance: HTα-L11-β (6×His-tagged CpcA-L11-CpcB subunit-fusion phycocyanin) (from UniProt P07121 1-163; P07120 2-173)
binding [6]: binds
binding [3]: binds

Substance: SpA(DABC)-6×His-pII-TEV-CpcA subunit (from UniProt P38507 87-324; P07121 1-163)
binding [13]: binds

Substance: HTα-L11-β-BCCP114 (6xHis-TEV-CpcA-L11-CpcB-TBN-BCCP114) (from UniProt P07121 1-163; P07120 2-173; Q06881 69-182)
binding [11]: binds
binding [12]: binds
binding [17]: binds

Substance: HT-pII-α-BCCP114 (6xHis-GCN4pII-TEV-CpcA-TBN-BCCP114) (from UniProt P07121 1-163; Q06881 69-182)
binding [12]: binds

Substance: HTβ-L11-α (6×His-tagged CpcB-L11-CpcA subunit-fusion phycocyanin) (from UniProt P07120 1-173; P07121 2-163)
binding [6]: binds
binding [3]: binds

Substance: SWMb-6×His-TEV-CpcB (sperm whale myoglobin-phycocyanin β subunit fusion) (from UniProt P02185 1-154; P07120 1-173)
binding [15]: binds

Further lines, results first:

binding [1]: binds
Substance: SpA(DABC)-6×His-TEV-CpcA subunit (from UniProt P38507 87-324; P07121 1-163)

binding [4]: binds
binding [5]: binds
binding [6]: binds
Substance: HTβ-BCCP114 subunit (6xHis-TEV-CpcB-TBN-BCCP114) (from UniProt P07120 1-173; Q06881 69-182)

binding [10]: binds
binding [11]: binds
binding [12]: binds
Substance: HT-pII-α-L11-β-BCCP114 (6xHis-GCN4pII-TEV-CpcA-L11-CpcB-TBN-BCCP114) (from UniProt P07121 1-163; P07120 2-173; Q06881 69-182)

binding [14]: binds
binding [15]: binds
Substance: GlbN-6×His-TEV-CpcB (cyanoglobin-phycocyanin β subunit fusion) (from UniProt Q00812 1-118; P07120 1-173)

binding [11]: binds
Substance: HT-pII-β-BCCP114 subunit (6xHis-GCN4pII-TEV-CpcB-TBN-BCCP114) (from UniProt P07120 1-173; Q06881 69-182)

binding [16]: binds
Substance: MalE-6×His-TEV-α (maltose-binding protein-phycocyanin α subunit fusion) (from UniProt P07121 1-163)

binding [3]: binds
Substance: apo-HTα-BCCP114 (6xHis-TEV-CpcA-TBN-BCCP114) (from UniProt P07121 1-163; Q06881 69-182)

Source: patent publication US20040014151A1 (published 2004)
